Laboratory results as given in paper PMC10182956 (Archives of Toxicology, 2023).

Tested on: HepaRG cells
Settings: HepaRG 24 h

CCCCc1oc2ccccc2c1C(=O)c1cc(I)c(OCCN(CC)CC)c(I)c1 [amiodarone]
Concentration at which increase of number of apoptotic cells (nuclear morphology) exceeded the threshold: 25 µM
